Results deposited as PubChem BioAssay AID1259425 (University of Nebraska Medical Center, 2018).
Purpose: 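Find knockdowns that reproduce the gene expression pattern seen when KSR1 is lost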 (primary screen). Cell system: HCT116 human colon cancer cells. Reagents: siRNA pool against human genes, 50 nM siRNA. Measurement: 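mRNA of six signature genes measured together by branched-DNA assay after 50 nM siRNA pool, blank removed, divided by geometric mean of two housekeeping genes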. Reading the numbers: BNIP3L mRNA: higher = more BNIP3L transcript after knockdown; NDRG1 mRNA: higher = more NDRG1 transcript after knockdown; BNIP3 mRNA: higher = more BNIP3 transcript after knockdown; ALDOC mRNA: higher = more ALDOC transcript after knockdown; ACSL5 mRNA: higher = more ACSL5 transcript after knockdown.
Here is a random part of about 14,000 reagents tested. Not stated in the record: the time to read-out.

| gene | BNIP3L mRNA, set 1 | NDRG1 mRNA, set 1 | BNIP3 mRNA, set 1 | ALDOC mRNA, set 1 | ACSL5 mRNA, set 1 |
| --- | --- | --- | --- | --- | --- |
| EPB41L1 | 0.104 | 0.217 | 0.353 | 0.0117 | 0.309 |
| ORAI1 | 0.417 | 0.186 | 0.309 | 0.0236 | 0.168 |
| GALR1 | 0.0981 | 0.0987 | 0.306 | 0.0325 | 0.201 |
| REXO5 | 0.133 | 0.255 | 0.379 | 0.0228 | 0.389 |
| ZNF189 | 0.132 | 0.197 | 0.299 | 0.0199 | 0.119 |
| HTR3B | 0.247 | 0.534 | 0.445 | 0.0367 | 0.23 |
| NAT14 | 0.132 | 0.142 | 0.158 | 0.0325 | 0.215 |
| TPPP3 | 2.5 | 3.69 | 2.24 | 0.786 | 0.692 |
| PCOLCE | 0.0985 | 0.136 | 0.373 | 0.00818 | 0.282 |
| RABGGTA | 0.0759 | 0.48 | 0.376 | 0.0424 | 0.342 |
| OCLM (retired record) | 0.0991 | 0.105 | 0.225 | 0.0179 | 0.144 |
| PACS2 | 0.102 | 0.0824 | 0.377 | 0.0179 | 0.0532 |
| PIPOX | 0.121 | 0.189 | 0.39 | 0.0402 | 0.121 |
| DNTTIP1 | 0.212 | 0.945 | 0.341 | 0.0837 | 0.435 |
| LAMB1 | 0.155 | 0.142 | 0.199 | 0.0443 | 0.0974 |
| CPO | 0.153 | 0.0906 | 0.301 | 0.0225 | 0.181 |
| DCAF16 | 0.122 | 0.131 | 0.258 | 0.0218 | 0.28 |
| TCAP | 0.18 | 1.21 | 0.422 | 0.016 | 0.17 |
| TOM1 | 0.0828 | 0.286 | 0.208 | 0.0205 | 0.119 |
| BCCIP | 0.114 | 0.112 | 0.45 | 0.0353 | 0.205 |
| ADAM32 | 0.0988 | 0.184 | 0.36 | 0.0306 | 0.312 |
| AEBP2 | 0.0487 | 0.132 | 0.417 | 0.0281 | 0.0759 |
| FYN | 0.162 | 0.103 | 0.342 | 0.0131 | 0.173 |
| QTMAN | 0.188 | 0.22 | 0.338 | 0.049 | 0.127 |
| GOT1 | 0.118 | 0.165 | 0.295 | 0.0208 | 0.162 |
| MASP2 | 0.0669 | 0.14 | 0.471 | 0.0918 | 0.133 |
| SNRPE | 0.254 | 1.09 | 0.245 | 0.0498 | 0.0573 |
| CHST5 | 0.189 | 0.701 | 0.674 | 0.0446 | 0.38 |
| PTPRC | 0.0627 | 0.156 | 0.232 | 0.0119 | 0.129 |
| SIGLEC8 | 0.0608 | 0.762 | 0.327 | 0.0369 | 0.158 |
| ELK1 | 0.165 | 0.138 | 0.499 | 0.0228 | 0.13 |
| DUSP13B | 0.0782 | 0.0783 | 0.237 | 0.031 | 0.107 |
| SGIP1 | 0.204 | 0.339 | 0.365 | 0.115 | 0.626 |
| SMTN | 0.103 | 0.156 | 0.426 | 0.0199 | 0.234 |
| ISG15 | 0.129 | 0.176 | 0.402 | 0.0363 | 0.128 |
| SUGT1 | 0.107 | 0.506 | 0.562 | 0.0585 | 0.406 |
| PADI2 | 0.21 | 0.372 | 0.385 | 0.0201 | 0.233 |
| TOMM20 | 0.0819 | 0.146 | 0.29 | 0.0389 | 0.186 |
| ALG3 | 0.177 | 0.238 | 0.229 | 0.021 | 0.209 |
| RBM41 | 0.0939 | 0.161 | 0.33 | 0.0232 | 0.237 |
| LANCL1 | 0.188 | 0.273 | 0.629 | 0.0394 | 0.151 |
| SLF2 | 0.116 | 0.25 | 0.328 | 0.0198 | 0.263 |
| SLC9A3 | 0.295 | 0.534 | 0.517 | 0.037 | 0.337 |
| PARP4 | 0.0874 | 0.167 | 0.645 | 0.0124 | 0.151 |
| RXRG | 0.0524 | 0.176 | 0.151 | 0.0238 | 0.152 |
| ITGAV | 0.133 | 0.256 | 0.249 | 0.02 | 0.392 |
| FAM217B | 0.0815 | 0.17 | 0.218 | 0.0333 | 0.203 |
| RANBP6 | 0.0832 | 0.188 | 0.196 | 0.0222 | 0.168 |
| CHIT1 | 0.346 | 0.365 | 0.243 | 0.0851 | 0.259 |
| EPHA4 | 0.133 | 0.155 | 0.185 | 0.00658 | 0.337 |
| RELCH | 0.188 | 0.127 | 0.425 | 0.0564 | 0.346 |
| CSAG2 | 0.104 | 0.0567 | 0.305 | 0.0547 | 0.129 |
| PLEKHG3 | 0.18 | 0.943 | 0.223 | 0.0234 | 0.111 |
| NOA1 | 0.208 | 0.164 | 0.364 | 0.0983 | 0.234 |
| DHX9 | 0.12 | 0.155 | 0.251 | 0.036 | 0.105 |
| CMIP | 0.0544 | 0.165 | 0.266 | 0.0199 | 0.161 |
| SLU7 | 0.0933 | 0.0589 | 0.269 | 0.0308 | 0.0833 |
| MT1F | 0.265 | 1.49 | 0.226 | 0.262 | 0.186 |
| PAGE4 | 0.147 | 0.373 | 0.554 | 0.0165 | 0.497 |
| SHMT2 | 0.115 | 0.153 | 0.393 | 0.0292 | 0.185 |
| GPR15 | 0.4 | 0.571 | 1.23 | 0.1 | 0.146 |
| PCDHAC1 | 0.12 | 0.193 | 0.305 | 0.0142 | 0.213 |
| MCM5 | 0.125 | 0.372 | 0.308 | 0.0122 | 0.264 |

Reformatted: entries from further up.
gene,"BNIP3L mRNA, set 1","NDRG1 mRNA, set 1","BNIP3 mRNA, set 1","ALDOC mRNA, set 1","ACSL5 mRNA, set 1"
ORAI1,0.417,0.186,0.309,0.0236,0.168
GALR1,0.0981,0.0987,0.306,0.0325,0.201
REXO5,0.133,0.255,0.379,0.0228,0.389
ZNF189,0.132,0.197,0.299,0.0199,0.119
HTR3B,0.247,0.534,0.445,0.0367,0.23
NAT14,0.132,0.142,0.158,0.0325,0.215
TPPP3,2.5,3.69,2.24,0.786,0.692
PCOLCE,0.0985,0.136,0.373,0.00818,0.282
RABGGTA,0.0759,0.48,0.376,0.0424,0.342
